NP40-soluble protein abundance data for 38 targets are collected here from the supplement of paper PMC6411743.

Protein sequences, listed by entry. Tags and fused reporters are not part of them. Lines headed by an entry give the natural chain unless they say otherwise; changes in a name come on top.
UniProt O15117, whole entry: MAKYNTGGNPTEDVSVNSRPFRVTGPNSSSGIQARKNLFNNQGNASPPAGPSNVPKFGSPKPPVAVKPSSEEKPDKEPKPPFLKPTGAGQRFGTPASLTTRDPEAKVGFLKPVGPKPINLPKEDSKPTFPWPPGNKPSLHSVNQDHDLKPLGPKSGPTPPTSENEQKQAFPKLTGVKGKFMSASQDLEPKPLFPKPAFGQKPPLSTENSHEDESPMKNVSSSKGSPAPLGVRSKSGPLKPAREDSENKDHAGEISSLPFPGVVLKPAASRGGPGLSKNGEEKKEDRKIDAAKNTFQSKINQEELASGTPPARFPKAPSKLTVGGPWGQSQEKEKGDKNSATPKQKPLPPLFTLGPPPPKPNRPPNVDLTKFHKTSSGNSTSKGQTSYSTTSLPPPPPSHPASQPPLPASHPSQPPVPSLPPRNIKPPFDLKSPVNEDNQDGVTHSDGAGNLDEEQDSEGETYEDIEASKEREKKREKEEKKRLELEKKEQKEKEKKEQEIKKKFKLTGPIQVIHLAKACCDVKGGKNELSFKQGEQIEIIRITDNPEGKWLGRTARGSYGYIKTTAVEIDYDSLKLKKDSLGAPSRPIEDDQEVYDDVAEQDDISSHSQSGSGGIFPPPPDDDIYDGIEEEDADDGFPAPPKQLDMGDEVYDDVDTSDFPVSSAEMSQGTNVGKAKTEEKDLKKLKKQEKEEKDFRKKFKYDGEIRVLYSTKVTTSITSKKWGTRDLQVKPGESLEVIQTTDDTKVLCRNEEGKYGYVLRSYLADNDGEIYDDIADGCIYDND
UniProt Q9GZN7, whole entry: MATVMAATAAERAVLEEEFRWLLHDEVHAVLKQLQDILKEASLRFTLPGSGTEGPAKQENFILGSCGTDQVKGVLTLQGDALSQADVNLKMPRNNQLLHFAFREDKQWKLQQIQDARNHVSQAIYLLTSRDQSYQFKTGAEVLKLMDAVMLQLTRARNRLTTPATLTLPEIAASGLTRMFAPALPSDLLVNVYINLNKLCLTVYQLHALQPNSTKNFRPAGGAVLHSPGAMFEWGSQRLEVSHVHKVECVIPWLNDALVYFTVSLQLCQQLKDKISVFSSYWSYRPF
UniProt O14920: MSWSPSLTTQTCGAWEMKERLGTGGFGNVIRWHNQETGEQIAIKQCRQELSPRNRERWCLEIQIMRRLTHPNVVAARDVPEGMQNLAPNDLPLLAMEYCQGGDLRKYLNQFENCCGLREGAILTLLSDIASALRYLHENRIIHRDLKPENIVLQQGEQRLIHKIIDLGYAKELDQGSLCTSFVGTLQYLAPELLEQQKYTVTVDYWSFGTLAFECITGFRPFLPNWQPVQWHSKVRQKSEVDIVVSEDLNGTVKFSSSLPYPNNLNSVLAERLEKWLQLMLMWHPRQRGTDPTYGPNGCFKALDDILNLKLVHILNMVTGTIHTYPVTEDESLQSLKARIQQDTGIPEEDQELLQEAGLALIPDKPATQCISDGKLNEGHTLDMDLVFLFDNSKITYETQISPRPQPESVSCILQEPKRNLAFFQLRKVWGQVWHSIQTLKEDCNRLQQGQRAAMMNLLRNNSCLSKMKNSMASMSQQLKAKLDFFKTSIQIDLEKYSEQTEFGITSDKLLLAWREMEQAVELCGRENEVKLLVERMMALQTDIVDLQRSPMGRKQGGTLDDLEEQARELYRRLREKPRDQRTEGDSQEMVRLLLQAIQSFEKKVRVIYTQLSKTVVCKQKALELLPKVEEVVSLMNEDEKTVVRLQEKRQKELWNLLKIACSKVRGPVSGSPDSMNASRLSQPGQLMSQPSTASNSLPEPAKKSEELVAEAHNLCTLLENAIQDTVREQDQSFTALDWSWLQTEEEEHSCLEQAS
UniProt Q16543: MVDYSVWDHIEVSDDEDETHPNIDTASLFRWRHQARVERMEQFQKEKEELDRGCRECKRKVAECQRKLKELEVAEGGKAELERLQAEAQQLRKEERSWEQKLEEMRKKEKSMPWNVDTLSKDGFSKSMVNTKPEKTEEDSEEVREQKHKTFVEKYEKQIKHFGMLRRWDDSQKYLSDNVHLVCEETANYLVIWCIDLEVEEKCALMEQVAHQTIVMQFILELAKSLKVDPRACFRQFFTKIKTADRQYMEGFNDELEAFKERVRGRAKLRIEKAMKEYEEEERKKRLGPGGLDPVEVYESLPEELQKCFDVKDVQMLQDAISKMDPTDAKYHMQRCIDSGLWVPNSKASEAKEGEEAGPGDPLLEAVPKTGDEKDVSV
UniProt O15173: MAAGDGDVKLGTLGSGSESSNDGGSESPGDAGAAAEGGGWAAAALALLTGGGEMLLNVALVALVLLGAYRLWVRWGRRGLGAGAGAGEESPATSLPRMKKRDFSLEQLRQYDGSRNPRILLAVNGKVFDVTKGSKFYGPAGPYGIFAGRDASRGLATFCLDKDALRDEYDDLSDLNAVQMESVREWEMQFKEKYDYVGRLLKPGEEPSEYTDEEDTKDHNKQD
UniProt O15391, whole entry: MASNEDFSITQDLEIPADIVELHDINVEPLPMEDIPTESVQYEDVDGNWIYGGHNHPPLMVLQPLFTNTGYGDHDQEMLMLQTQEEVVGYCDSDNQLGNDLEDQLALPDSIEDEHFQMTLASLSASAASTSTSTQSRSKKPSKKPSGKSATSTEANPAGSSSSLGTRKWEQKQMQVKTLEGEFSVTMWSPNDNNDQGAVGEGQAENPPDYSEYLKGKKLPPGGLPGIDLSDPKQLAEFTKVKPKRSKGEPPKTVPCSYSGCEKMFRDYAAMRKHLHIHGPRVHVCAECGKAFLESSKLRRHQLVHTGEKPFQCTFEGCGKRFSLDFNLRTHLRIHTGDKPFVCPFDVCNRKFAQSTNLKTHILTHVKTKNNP
UniProt O43149: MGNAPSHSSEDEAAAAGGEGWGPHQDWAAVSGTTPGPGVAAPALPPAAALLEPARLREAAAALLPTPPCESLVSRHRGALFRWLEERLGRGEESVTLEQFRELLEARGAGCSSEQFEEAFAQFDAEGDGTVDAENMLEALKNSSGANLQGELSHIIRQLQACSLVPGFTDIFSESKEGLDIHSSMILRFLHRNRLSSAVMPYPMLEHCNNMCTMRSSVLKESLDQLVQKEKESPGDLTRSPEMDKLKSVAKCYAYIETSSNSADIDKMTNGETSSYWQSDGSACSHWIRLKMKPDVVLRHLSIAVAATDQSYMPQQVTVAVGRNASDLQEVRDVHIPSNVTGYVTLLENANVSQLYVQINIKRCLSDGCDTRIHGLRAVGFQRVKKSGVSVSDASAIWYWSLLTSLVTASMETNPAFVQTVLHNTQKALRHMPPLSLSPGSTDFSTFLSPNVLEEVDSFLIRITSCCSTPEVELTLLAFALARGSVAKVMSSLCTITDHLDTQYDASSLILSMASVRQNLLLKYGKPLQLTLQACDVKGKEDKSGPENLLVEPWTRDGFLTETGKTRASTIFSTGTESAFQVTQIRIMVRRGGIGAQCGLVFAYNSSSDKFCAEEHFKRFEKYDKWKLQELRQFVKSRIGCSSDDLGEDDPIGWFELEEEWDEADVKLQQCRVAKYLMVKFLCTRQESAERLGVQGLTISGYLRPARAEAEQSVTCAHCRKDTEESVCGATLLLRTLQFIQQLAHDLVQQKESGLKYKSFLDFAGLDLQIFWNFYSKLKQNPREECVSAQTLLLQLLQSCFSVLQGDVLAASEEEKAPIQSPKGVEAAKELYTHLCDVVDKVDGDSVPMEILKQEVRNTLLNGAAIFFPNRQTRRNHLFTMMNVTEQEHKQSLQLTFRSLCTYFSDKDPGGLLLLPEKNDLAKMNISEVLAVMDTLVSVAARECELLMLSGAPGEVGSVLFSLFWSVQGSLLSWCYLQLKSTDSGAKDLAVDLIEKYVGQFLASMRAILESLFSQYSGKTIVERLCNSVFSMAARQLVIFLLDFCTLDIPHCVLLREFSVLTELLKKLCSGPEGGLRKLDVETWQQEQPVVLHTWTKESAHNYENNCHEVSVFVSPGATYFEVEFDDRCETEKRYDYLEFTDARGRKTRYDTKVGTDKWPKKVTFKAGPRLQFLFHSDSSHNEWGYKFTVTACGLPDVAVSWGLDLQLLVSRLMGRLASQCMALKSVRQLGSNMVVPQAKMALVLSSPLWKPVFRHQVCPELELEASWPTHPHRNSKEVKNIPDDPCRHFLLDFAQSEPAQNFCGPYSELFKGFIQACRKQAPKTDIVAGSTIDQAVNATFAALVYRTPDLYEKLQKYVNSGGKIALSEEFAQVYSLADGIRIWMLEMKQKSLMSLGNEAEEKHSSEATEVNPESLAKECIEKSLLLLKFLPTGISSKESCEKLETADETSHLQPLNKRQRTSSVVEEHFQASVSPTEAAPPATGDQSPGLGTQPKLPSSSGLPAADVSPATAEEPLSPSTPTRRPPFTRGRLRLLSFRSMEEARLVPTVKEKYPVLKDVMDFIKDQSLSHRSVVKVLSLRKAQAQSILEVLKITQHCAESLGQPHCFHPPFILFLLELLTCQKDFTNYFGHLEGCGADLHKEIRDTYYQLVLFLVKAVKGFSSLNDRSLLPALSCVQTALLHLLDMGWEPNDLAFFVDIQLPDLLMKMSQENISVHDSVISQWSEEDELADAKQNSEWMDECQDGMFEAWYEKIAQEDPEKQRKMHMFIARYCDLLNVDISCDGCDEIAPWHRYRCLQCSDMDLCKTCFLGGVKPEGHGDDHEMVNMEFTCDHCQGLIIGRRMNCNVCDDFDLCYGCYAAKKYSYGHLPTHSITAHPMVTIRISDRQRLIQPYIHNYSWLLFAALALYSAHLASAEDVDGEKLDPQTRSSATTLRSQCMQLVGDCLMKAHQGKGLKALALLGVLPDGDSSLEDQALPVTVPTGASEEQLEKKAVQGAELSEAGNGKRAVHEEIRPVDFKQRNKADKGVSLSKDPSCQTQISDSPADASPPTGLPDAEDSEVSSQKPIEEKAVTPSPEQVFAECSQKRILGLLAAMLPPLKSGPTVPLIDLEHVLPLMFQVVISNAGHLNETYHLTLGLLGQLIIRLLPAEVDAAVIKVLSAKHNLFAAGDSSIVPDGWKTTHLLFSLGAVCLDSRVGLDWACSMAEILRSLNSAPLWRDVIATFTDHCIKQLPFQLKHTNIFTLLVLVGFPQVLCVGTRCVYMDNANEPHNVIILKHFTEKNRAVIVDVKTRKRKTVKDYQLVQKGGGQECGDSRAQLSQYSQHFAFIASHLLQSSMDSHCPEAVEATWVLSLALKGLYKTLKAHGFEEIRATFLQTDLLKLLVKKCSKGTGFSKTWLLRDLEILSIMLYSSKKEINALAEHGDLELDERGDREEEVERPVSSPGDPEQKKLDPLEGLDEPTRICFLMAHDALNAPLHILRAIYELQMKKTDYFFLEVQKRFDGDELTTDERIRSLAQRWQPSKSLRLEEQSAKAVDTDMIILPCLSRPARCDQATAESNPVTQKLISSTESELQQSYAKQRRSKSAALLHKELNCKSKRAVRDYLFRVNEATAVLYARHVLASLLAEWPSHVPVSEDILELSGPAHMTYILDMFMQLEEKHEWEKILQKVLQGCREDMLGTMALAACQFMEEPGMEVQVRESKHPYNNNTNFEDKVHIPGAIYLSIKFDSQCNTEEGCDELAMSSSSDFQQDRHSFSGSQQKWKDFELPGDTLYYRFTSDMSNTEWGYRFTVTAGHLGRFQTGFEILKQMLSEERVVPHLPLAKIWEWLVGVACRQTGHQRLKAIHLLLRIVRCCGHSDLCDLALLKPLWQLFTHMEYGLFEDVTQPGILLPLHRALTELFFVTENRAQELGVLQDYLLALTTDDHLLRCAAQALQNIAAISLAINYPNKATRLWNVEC
UniProt O43747: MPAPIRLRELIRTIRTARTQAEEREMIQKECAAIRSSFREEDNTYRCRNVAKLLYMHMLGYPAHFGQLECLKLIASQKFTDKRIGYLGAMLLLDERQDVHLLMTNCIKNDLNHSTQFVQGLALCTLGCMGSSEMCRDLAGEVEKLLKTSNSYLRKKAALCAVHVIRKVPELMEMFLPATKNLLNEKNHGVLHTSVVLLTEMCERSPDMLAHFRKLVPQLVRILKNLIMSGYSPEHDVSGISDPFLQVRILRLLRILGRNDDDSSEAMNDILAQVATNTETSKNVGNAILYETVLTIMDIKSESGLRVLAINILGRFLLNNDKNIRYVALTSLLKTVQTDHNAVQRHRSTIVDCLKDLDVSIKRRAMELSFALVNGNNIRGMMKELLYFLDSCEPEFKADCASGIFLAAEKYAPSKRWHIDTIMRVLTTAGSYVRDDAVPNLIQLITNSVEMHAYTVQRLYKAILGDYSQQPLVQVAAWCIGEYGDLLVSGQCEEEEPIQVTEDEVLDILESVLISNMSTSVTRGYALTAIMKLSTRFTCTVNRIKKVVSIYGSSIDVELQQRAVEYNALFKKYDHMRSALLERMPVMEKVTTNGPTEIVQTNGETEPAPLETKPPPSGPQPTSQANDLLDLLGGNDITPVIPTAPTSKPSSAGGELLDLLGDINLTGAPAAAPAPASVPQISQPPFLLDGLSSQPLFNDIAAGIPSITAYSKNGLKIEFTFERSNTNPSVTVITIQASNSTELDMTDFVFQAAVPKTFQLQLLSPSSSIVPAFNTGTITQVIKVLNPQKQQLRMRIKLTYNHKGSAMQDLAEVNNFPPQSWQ

± gives the standard deviation of the averaged measurements. The entries are a selection whose mix differs from that of the whole data set. Small differences around the control level are noise.

Compound in one experiment: Nc1ncnc2c1ncn2[C@@H]1O[C@H](COP(=O)(O)OP(=O)(O)NP(=O)(O)O)[C@@H](O)[C@H]1O [adenylyl imidodiphosphate]
Nature of the experiment: NP40-soluble protein abundance relative to vehicle (solubility fold change) (ratio); higher = more soluble protein in presence of AMP-PNP. Particulars: concentration: 0.1mM. The essentials:
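Each value is a fold change relative to the detergent-processed vehicle, calculated per replicate from vsn-normalised intensities. Jurkat crude lysate received eight concentrations (0.1 to 10 mM) for 10 min at room temperature and 3 min at 37 °C, then was solubilised in 0.8% NP40 with benzonase (60 min, 4 °C). The ultracentrifuged supernatant was TMT-labelled and run by LC-MS/MS in three independent experiments.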
For UniProt O15117 and related entries, the NP40-soluble protein abundance was found to be 1.02 ± 0.071.
The same measure, in the same setting: with RRP9 (UniProt O43818) the figure was 0.992 ± 0.018; with PFAS (UniProt O15067), 1.002 ± 0.009.
For UniProt O00148, the NP40-soluble protein abundance was determined as 1.03 ± 0.068.
Still for that read-out and setting: in the case of IPO8 (UniProt O15397) it was 0.99 ± 0.035; in that of TRAFD1 (UniProt O14545), 1.004 ± 0.0092; in that of ARPC2 (UniProt O15144), 1.017 ± 0.0072.
Still for that read-out and setting: with ANKRD28 (UniProt O15084) the figure was 1.03 ± 0.014.
On the same count and under the same terms, in the case of “K7EQV2 and related entries (UniProt O95707)” it was 1.05 ± 0.036; in that of COPE (UniProt O14579), 1.04 ± 0.071; in that of UniProt O15371 and related entries, 1.03 ± 0.027.
With UniProt O14686 and related entries, the NP40-soluble protein abundance came to 1.04 ± 0.043.
On the same count and under the same terms, with ZBTB43 (UniProt O43298) the figure was 1.01 ± 0.067; with ARPC5 (UniProt O15511), 1.04 ± 0.081.
The same measure, in the same setting: with UniProt O00154-4|O00154-7|K7EKP8 the figure was 1.01 ± 0.025.
Still for that read-out and setting: with MAFG (UniProt O15525) the figure was 0.974 ± 0.043.
For NDUFAB1 (UniProt O14561), the NP40-soluble protein abundance worked out at 0.978 ± 0.057.
Same read-out and setting: with UniProt O15085 and related entries the figure was 1.04 ± 0.043; with “M0QWZ7 and related entries (UniProt Q9NP81)”, 1.03 ± 0.033; with RNF13 (UniProt O43567), 0.976 ± 0.053.
Same read-out and setting: in the case of UniProt O14936 and related entries it was 0.986 ± 0.019; in that of PSMD3 (UniProt O43242), 1.01 ± 0.017; in that of MPHOSPH10 (UniProt O00566), 0.986 ± 0.048.
The same measure, in the same setting: in the case of “K7ERP1 and related entries (UniProt Q9GZN7)” it was 0.972 ± 0.043.
As for UniProt O14965 and related entries, the NP40-soluble protein abundance came out at 1 ± 0.014.
On the same count and under the same terms, in the case of UniProt O14920 it was 1.02 ± 0.017; in that of “K7EL68 and related entries (UniProt Q16543)”, 0.984 ± 0.032; in that of UniProt O15173 and related entries, 0.9821 ± 0.0078.
On to UniProt O00487, for which the NP40-soluble protein abundance stood at 1.01 ± 0.011.
On the same count and under the same terms, with UniProt O00422 and related entries the figure was 1.07 ± 0.086.
On the same count and under the same terms, with UniProt O15391 the figure was 1.04 ± 0.012; with DHX15 (UniProt O43143), 1.07 ± 0.017; with “K7ERI7 and related entries (UniProt P35268)”, 1.01 ± 0.02.
Same read-out and setting: in the case of UniProt O00764 and related entries it was 1.02 ± 0.02.
On to UniProt O00291 and related entries, for which the NP40-soluble protein abundance was 1.03 ± 0.012.
The same measure, in the same setting: with UniProt O43488 and related entries the figure was 1.03 ± 0.075; with ZZEF1 (UniProt O43149), 0.998 ± 0.064; with UniProt O43747 and related entries, 0.99 ± 0.034.

Staying with this experiment, now noted: concentration: 0.5mM.
In the case of UniProt O15117 and related entries, the NP40-soluble protein abundance is 1.05 ± 0.12.
Same read-out and setting: with RRP9 (UniProt O43818) the figure was 0.998 ± 0.034; with PFAS (UniProt O15067), 1.003 ± 0.0034.
Still for that read-out and setting: in the case of UniProt O00148 it was 0.972 ± 0.062; in that of IPO8 (UniProt O15397), 0.97 ± 0.03.
In the case of TRAFD1 (UniProt O14545), the NP40-soluble protein abundance worked out at 0.964 ± 0.034.
On the same count and under the same terms, with ARPC2 (UniProt O15144) the figure was 1.02 ± 0.065.
ANKRD28 (UniProt O15084): the NP40-soluble protein abundance stood at 0.984 ± 0.041.
On the same count and under the same terms, in the case of “K7EQV2 and related entries (UniProt O95707)” it was 0.968 ± 0.063.
COPE (UniProt O14579): the NP40-soluble protein abundance turned out to be 1.07 ± 0.087.
Same read-out and setting: in the case of UniProt O15371 and related entries it was 1.03 ± 0.028; in that of UniProt O14686 and related entries, 0.984 ± 0.064; in that of ZBTB43 (UniProt O43298), 0.98 ± 0.019.
Still for that read-out and setting: in the case of ARPC5 (UniProt O15511) it was 1.15 ± 0.21; in that of UniProt O00154-4|O00154-7|K7EKP8, 1.02 ± 0.017.
As to MAFG (UniProt O15525), the NP40-soluble protein abundance came to 0.978 ± 0.087.
On the same count and under the same terms, with NDUFAB1 (UniProt O14561) the figure was 0.987 ± 0.034.
Still for that read-out and setting: in the case of UniProt O15085 and related entries it was 1.02 ± 0.029; in that of “M0QWZ7 and related entries (UniProt Q9NP81)”, 0.996 ± 0.015.
RNF13 (UniProt O43567): the NP40-soluble protein abundance was 0.975 ± 0.056.
On the same count and under the same terms, with UniProt O14936 and related entries the figure was 0.986 ± 0.047; with PSMD3 (UniProt O43242), 0.985 ± 0.072.
Same read-out and setting: in the case of MPHOSPH10 (UniProt O00566) it was 1.02 ± 0.083; in that of “K7ERP1 and related entries (UniProt Q9GZN7)”, 1 ± 0.016.
Still for that read-out and setting: with UniProt O14965 and related entries the figure was 1.01 ± 0.032; with UniProt O14920, 1.01 ± 0.024.
In the case of “K7EL68 and related entries (UniProt Q16543)”, the NP40-soluble protein abundance was 1.03 ± 0.065.
In the case of UniProt O15173 and related entries, the NP40-soluble protein abundance is 0.994 ± 0.048.
In the case of UniProt O00487, the NP40-soluble protein abundance came to 0.96 ± 0.051.
Same read-out and setting: in the case of UniProt O00422 and related entries it was 1.05 ± 0.06.
Turning to UniProt O15391, the NP40-soluble protein abundance was 1.07 ± 0.016.
On the same count and under the same terms, in the case of DHX15 (UniProt O43143) it was 1.08 ± 0.059; in that of “K7ERI7 and related entries (UniProt P35268)”, 1.02 ± 0.017; in that of UniProt O00764 and related entries, 0.997 ± 0.034.
Still for that read-out and setting: in the case of UniProt O00291 and related entries it was 1 ± 0.031; in that of UniProt O43488 and related entries, 1.03 ± 0.022; in that of ZZEF1 (UniProt O43149), 0.971 ± 0.047.
Same read-out and setting: in the case of UniProt O43747 and related entries it was 1 ± 0.092.
